Assay results: US20230127202A1, “LONG-TERM PROBIOTIC BACTERIAL STORAGE AT AMBIENT TEMPERATURE” (CORNELL UNIVERSITY, priority 2021, published 2023)
At least one structure is not confirmed: it was looked up by name or label, or the drawing left a doubt.

Test system: LGG isolates
Assay: Antimicrobial susceptibility (MIC) test, Sensititre COMPGP1F gram-positive panel, CLSI interpretation
Assay type: cell-based, Lactobacillus rhamnosus GG
Settings: all LGG isolates after heat treatment and storage
Experimental: Antimicrobial susceptibility or minimum inhibitory concentration (MIC) test was performed using the Sensititre® system COMPGP1F gram-positive systemic panel. The test used the Clinical and Laboratory Standards Institute (CLSI) guidelines for interpretation of MIC values. All of the isolates were examined for susceptibility to 23 antimicrobial agents included in the gram-positive panel of the National Antimicrobial Resistance Monitoring System (NARMS), including amikacin, ampicillin, augmentin, cefazolin, cefovecin, cefpodoxime, cephalothin, chloramphenicol, clindamycin, doxycycline, enrofloxacin, erythromycin, gentamicin, imipenem, marbofloxacin, minocycline, nitrofurantoin, oxacillin + 2% NaCl, penicillin, pradofloxacin, rifampin, tetracycline, trim/sulfa.

Row | Structure (SMILES) | antimicrobial sensitivity of the isolates (CLSI interpretation of MIC)
1 | CCC[C@@H]1C[C@@H](C(=O)N[C@@H]([C@H]2O[C@H](SC)[C@H](O)[C@@H](O)[C@H]2O)[C@H](C)Cl)N(C)C1 [clindamycin] | susceptible
2 | COCC1=C(C(=O)O)N2C(=O)[C@@H](NC(=O)/C(=N\OC)c3csc(N)n3)[C@H]2SC1 [cefpodoxime] | resistance
3 | C[C@H]1c2cccc(O)c2C(=O)C2=C(O)[C@]3(O)C(=O)C(C(N)=O)=C(O)[C@@H](N(C)C)[C@@H]3[C@@H](O)[C@@H]21 [doxycycline] | susceptible

The next lines start with the values.

Row | antimicrobial sensitivity of the isolates (CLSI interpretation of MIC) | Structure (SMILES)
4 | susceptible | CN(C)c1ccc(O)c2c1C[C@H]1C[C@H]3[C@H](N(C)C)C(O)=C(C(N)=O)C(=O)[C@@]3(O)C(O)=C1C2=O [minocycline]
5 | intermediate sensitivity | C[C@@H](O)[C@H]1C(=O)N2C(C(=O)O)=C(SCCN=CN)C[C@H]12 [imipenem]
